In patent publication US20260209387A1, “SINGLE-DOMAIN ANTIBODY FOR INHIBITION OF NEUTROPHIL ELASTASE ACTIVITY” (UNIVERSITE DE LIEGE, priority 2023, published 2026) one finds binding data, which are given here for one molecule.

No constants are given. Whether binding was seen depends on the method and setting. Some results given as binding are weak or reduced against the parent protein; the word gives no strength.

In assay [1] the target is T1, mouse neutrophil elastase (mouse, UniProt Q3UP87 29-265, limits assumed).
T1 sequence (looked up): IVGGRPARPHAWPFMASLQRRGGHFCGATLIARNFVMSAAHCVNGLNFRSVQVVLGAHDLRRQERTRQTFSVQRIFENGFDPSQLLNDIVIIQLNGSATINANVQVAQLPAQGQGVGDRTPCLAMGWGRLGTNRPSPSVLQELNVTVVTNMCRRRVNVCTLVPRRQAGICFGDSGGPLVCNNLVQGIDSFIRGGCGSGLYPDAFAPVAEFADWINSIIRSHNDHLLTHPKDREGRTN
Briefly: BLI (Octet), biotinylated NbE201 on streptavidin sensors, mNE in solution.

For assay [2], the target named is T1, mouse neutrophil elastase. The experiment in a line: BLI, comparison of the values in Table 2.

B1: biotinylated NbE201 (VHH)
VHH: QVQLQESGGGLVQAGGSLRLSCVVPGRTISLYRMGWFRQAPGKEREFVAGINWSGDMTDYVDSVKGRFTISRDNAKNTVYLEMNSLKPEDTAIYYCTADPKLLPLADSSYGYWGQGTQVTVSS
modifications: C-terminal Cys biotinylated with EZ-Link Maleimide-PEG2-Biotin
notes: Form immobilised on streptavidin sensors in all BLI experiments; It was produced in the pHEN25 vector and biotinylated site-specifically on its C-terminal Cys; also called NbE201_Cter Biot; biotinylated ISVD NbE201
B1: the binding result in assay [1] and in assay [2] was “binds” each time.
